Patent publication US20190223450A1, “MICROALGAE EXTRACT FOR AGRICULTURAL USE” (priority 2015, published 2019)
Some entries share one result that the patent states for a list of compounds. At least one compound was matched to its structure with a doubt left.

Tested on: Plasmopara viticola
Assay: Protection of vine foliar discs and potted vine plants against Plasmopara viticola (peronospora)
Type: in vivo
Conditions: vine plants affected by peronospora
Experimental: The field tests were performed on vine plants affected by peronospora. The potential of certain biocontrol and plant extract products for protection against Plasmopara viticola (peronospora) was also assessed, since some chemical and natural substances can reduce the plants' susceptibility. In particular, comparisons were performed on the use of commercial products or experimental products: • EXPERIMENTAL PRODUCT 1 (EP1) yeast extract • EXPERIMENTAL PRODUCT 2 (EP2) plant extract • EXPERIMENTAL PRODUCT 3 (EP3) Aureobasidium pullulans • CANG extract of Solidago canadensis • P E N extract of mycelium of Penicillium crysogenum • LIN linoleic acid • BABA—chemical elicitors of 3-dl-β-aminobutyric acid • BTH—chemical elicitors of benzothiadiazole • CP—comparator product: extract of microalgae • MBGPT1—alginate extract of Phaeodactylum tricornutum obtained according to the method described above • chrysolaminarin from microalga
The efficacy of the treatments using the products listed above was assessed on the basis of the induced resistance using foliar discs and potted vine plants. The rate of induced resistance was determined on the basis of the increase in the content of pathogenesis-related (PR) proteins including: peroxidase, polyphenoloxidase, Beta 1,3-glucanase, phenylalanine ammonia-lyase, stilbene synthase, PR-1 protein and caffeoyl coenzyme A-3-O-methyltransferase.

In the case of `CC(N)CC(=O)O` (racemic) [BABA, 3-dl-β-aminobutyric acid], the protection is reported as “more than 80%”.
For `c1ccc2snnc2c1` [BTH, benzothiadiazole], the protection was “more than 80%”.
